Percent effect of library compounds

Measurements from “University of Dundee, Small-Polar-MMV Screening Library” (2021), ChEMBL document CHEMBL3988442.

A: 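Growth of Mycobacterium tuberculosis over 4 days (cholesterol / DPPC medium with tyloxapol); the read-out is not stated. Compounds at 500 µM. Higher reads as more growth inhibition (inferred: compounds with an IC50 in retests scored well above the rest). Size under these conditions: about 18,000 compounds, about 900 of them at 50% or above in at least one test.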
B: 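Whole-cell growth test on Mycobacterium tuberculosis, read after 3 days in glucose-containing 7H9 medium; the read-out is not stated. Tested at 500 µM. The record gives no direction; compounds that gave an IC50 in retests scored well above the rest, so higher reads as more growth inhibition. Size under these conditions: about 18,000 compounds, about 1,400 of them at 50% or above in at least one test.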

The filed quantity is “Percent Effect” (%). The controls that fix the scale are not given in the record; negative values are as filed. The compounds are a random part of those screened.

structure: Cn1ncc(NCC2CCCO2)c(Cl)c1=O (stereo unspecified)
A: 9.565
B: -3.401

structure: CCCn1ccnc1CNC(=O)c1ccc(CSC)o1
A: 20.24
B: 21.24

structure: Cc1nccc(CN)n1
A: -10.51
B: 4.468

structure: Cn1ccnc1CN1CCOCC1(C)C
A: 9.927
B: -7.347

structure: COCc1cccc(C(=O)NC(CO)c2ccsc2)c1 (stereo unspecified)
A: -1.321
B: 11.19

structure: c1cncc(-c2ccnn2CN2CCSCC2)c1
A: 6.713
B: 24.15

structure: Fc1ccc2c(c1)CNCCO2
A: 23.42
B: 28.34

structure: Cc1csc(C(C)CNC(=O)Nc2ncnn2C)n1 (stereo unspecified)
A: -3.63
B: 14.76

structure: Cc1cccc(C)c1NC(=O)CN1CCN(C)CC1
A: 44.7
B: -16.36

structure: Cc1nc(C(=O)NCC(=O)NC(C)C)c(C)s1
A: 8.53
B: 8.839

structure: CCOc1ccc(CC(=O)N2CCN(CC)CC2)cc1
A: 37.84
B: 60.46

structure: CC(NC(=O)Cn1ncn(C)c1=O)c1cccs1 (stereo unspecified)
A: -12.65
B: -3.605

structure: N#Cc1ccnc(N2CCNCC2)c1
A: 22.04
B: 25.15

structure: Cc1ncc(C)c(N)n1
A: 9.983
B: 21.2

structure: CCC(Oc1ccccc1C)C(=O)NN1CCOCC1 (stereo unspecified)
A: -9.609
B: -2.737

structure: CNCCCN1C(=O)c2ccccc2C1=O
A: -2.037
B: 2.916

structure: CC(C)(C#N)C1CCNCC1
A: -30.06
B: -6.798

structure: CC(=O)NCCNC(=O)c1ccc2oc(C)cc2c1
A: -1.525
B: -4.922

structure: c1cc(-c2ccnc(N3CCOCC3)n2)ccn1
A: -2.434
B: 26.53

structure: CC(=O)NCCNC(=O)c1ccncc1
A: -0.872
B: 10.91

structure: Cn1ncc(C#N)c1Cl
A: 1.134
B: 2.627

structure: c1cc(C2CCCCN2)n[nH]1 (stereo unspecified)
A: -6.529
B: -2.343

structure: C1CC(C2COCCN2)C1 (stereo unspecified)
A: -25.55
B: -7.374

structure: O=C(c1ccc(F)c(O)c1)N1CC(N2CCCCC2)C1
A: -9.832
B: -13.03

structure: COc1ccc(F)cc1C(=O)OCC(=O)NC1CC1
A: 64.37
B: 78.24

structure: C[C@@H](N)c1nnc2n1CCCCC2
A: 2.836
B: 6.966

structure: Cc1cc(C#N)no1
A: 9.103
B: 5.812

structure: CC(C)(C)C(=O)N1CCCN(C2CCOC2=O)CC1 (stereo unspecified)
A: -8.878
B: -6.535

structure: N#Cc1ccc(NCC(=O)N2CCOCC2)cc1
A: -13.28
B: -6.143

structure: COc1ccc(C(=O)CCN(C)C)cc1OC
A: 19.77
B: 105

structure: COC(=O)[C@H](C)NC(=O)C1(c2ccccc2F)CC1
A: 61.14
B: 74.18

structure: O=C(NCCN1CCNCC1)C1CCCC1
A: 5.437
B: -0.8019

structure: Cc1cc(NCC(O)CO)c2cc(F)ccc2n1 (stereo unspecified)
A: -51.65
B: -10.4

structure: NS(=O)(=O)Cc1cccc(NC(=O)N2CCSCC2)c1
A: 16.45
B: 10.45

structure: Cc1ccc(CN2CCNC(=O)CC2)c(Br)c1
A: 23.26
B: 9.581

structure: CC1CN(c2nc(-c3ccccc3)ns2)CCS1(=O)=O (stereo unspecified)
A: -12.96
B: -3.019

structure: Cc1cc(F)ccc1NC(=O)NCC1(O)CCNC1 (stereo unspecified)
A: 2.686
B: 9.607

structure: COC(=O)CCCC(=O)N1CCCc2ccc(F)cc21
A: 48.01
B: 56.35

structure: CC(OC(=O)CCNC(=O)Nc1ccccc1)C(N)=O (stereo unspecified)
A: -20.79
B: 9.542

structure: Nc1n[nH]c(SCc2ccc3c(c2)OCCO3)n1
A: 53.96
B: 21.62

structure: COCc1csc(CO)c1
A: 3.589
B: 2.608

structure: CC(C)CC(NC(N)=O)C(=O)Nc1cc(F)cc(F)c1 (stereo unspecified)
A: 51.95
B: 56.34

structure: COc1cccc(N2CCCC(N)C2)c1 (stereo unspecified)
A: 19.24
B: 39.11

structure: NCCc1nc(-c2ccccn2)cs1
A: 31.8
B: 74.8

structure: O=C(Cc1ccncc1)N1CCNCC1
A: -24.07
B: -8.11

structure: COCCC1(CO)CCCN(C(=O)c2ccncc2)C1 (stereo unspecified)
A: 5.003
B: 2.215

Some entries from above, unchanged:

structure,A,B
Cc1ccc(CN2CCNC(=O)CC2)c(Br)c1,23.26,9.581
CCC(Oc1ccccc1C)C(=O)NN1CCOCC1 (stereo unspecified),-9.609,-2.737
Cn1ncc(C#N)c1Cl,1.134,2.627
Cc1cc(F)ccc1NC(=O)NCC1(O)CCNC1 (stereo unspecified),2.686,9.607
CCOc1ccc(CC(=O)N2CCN(CC)CC2)cc1,37.84,60.46